Experimental data: PubChem BioAssay AID1224826 (NIAID, 2016)
Aim: 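Knock-downs that raise or lower Tnf reporter signal after endotoxin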 (primary screen). System: RAW264.7 G9 macrophages from mouse bearing reporters for p65 (GFP) and the Tnf promoter (mCherry). Reagents: siRNA pool against mouse genes, 100 nM. Time to read-out: 16 h of LPS stimulation, after 2 days of siRNA transfection. Conditions: bacterial lipopolysaccharide (Salmonella minnesota R595), 10 ng/ml. Measurement: 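Imaged Tnf reporter mCherry in nuclei, minus background, normalised per plate to the median and expressed as robust z-scores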. Reading the numbers: Tnf reporter robust z-score: higher = stronger Tnf promoter reporter signal after LPS; Tnf reporter intensity: higher = stronger Tnf promoter reporter signal. Rule for the call: 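Called active when robust z-score is at most -1.3, matching the median of the Tlr4 knock-down control, or over 3; control wells and wells with under 50 cells never active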. Meaning of the calls: active = Tnf reporter clearly lowered or raised; inactive = no clear change in Tnf reporter.
The whole screen tested about 17,000 reagents; below is a random part of them. Of all reagents, about 1,110 (6.6%) were called active. 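Active means lowered or raised reporter signal; replicate intensities are raw and not normalised per plate.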 Unmarked entries are inactive. Further read-outs or replicates are left out here.

gene | Tnf reporter robust z-score | fewer than 50 cells in well | Tnf reporter intensity, replicate 1
Teddm2 (GeneID 240817) | -0.22 | enough cells in well | 200
Gm38404 (GeneID 232386) | -0.29 | enough cells in well | 180
Ywhaz (GeneID 22631) | -0.69 | enough cells in well | 169
Dram1 (GeneID 71712) | -0.39 | enough cells in well | 148
Fxyd2 (GeneID 11936) | -0.22 | enough cells in well | 266
Uevld (GeneID 54122) | -1.26 | enough cells in well | 120
Snx2 (GeneID 67804) | -0.64 | enough cells in well | 97.4
Pax6 (GeneID 18508) | -1.36 (active) | enough cells in well | 113
Cadm2 (GeneID 239857) | -0.93 | enough cells in well | 144
Bnip2 (GeneID 12175) | 0.99 | enough cells in well | 173
Scfd2 (GeneID 212986) | 2.49 | enough cells in well | 195
Acp7 (GeneID 101744) | -0.13 | enough cells in well | 46.1
Fbxo43 (GeneID 78803) | 2.98 | enough cells in well | 388
Msmo1 (GeneID 66234) | -0.27 | enough cells in well | 316
Hnf4g (GeneID 30942) | -0.64 | enough cells in well | 153
Acvr1b (GeneID 11479) | -0.47 | enough cells in well | 158
Matn4 (GeneID 17183) | -0.85 | enough cells in well | 169
Adrb1 (GeneID 11554) | 0.2 | enough cells in well | 217
Myl6 (GeneID 17904) | 1.44 | enough cells in well | 444
Rrs1 (GeneID 59014) | -0.56 | enough cells in well | 128
Sit1 (GeneID 54390) | 1.01 | enough cells in well | 115
Slu7 (GeneID 193116) | -0.67 | enough cells in well | 113
Cspg5 (GeneID 29873) | 0.57 | enough cells in well | 230
Slfn8 (GeneID 276950) | – | fewer than 50 cells per well; well left out of calls | 118
Nos3 (GeneID 18127) | -0.56 | enough cells in well | 218
Slc34a1 (GeneID 20505) | – | fewer than 50 cells per well; well left out of calls | 112
Map3k2 (GeneID 26405) | – | fewer than 50 cells per well; well left out of calls | 78.7
Kcnc3 (GeneID 16504) | -0.08 | enough cells in well | 229
Camk2d (GeneID 108058) | -0.12 | enough cells in well | 180
Or2y13 (GeneID 404337) | -1.19 | enough cells in well | 113
Nr2f6 (GeneID 13864) | -0.44 | enough cells in well | 189
Usp9x (GeneID 22284) | 0.72 | enough cells in well | 258
Coch (GeneID 12810) | -0.9 | enough cells in well | 160
Garin2 (GeneID 70897) | – | fewer than 50 cells per well; well left out of calls | 163
Syt5 (GeneID 53420) | -1.16 | enough cells in well | 73.3
Krt6a (GeneID 16687) | -1.08 | enough cells in well | 189
Arsk (GeneID 77041) | -0.07 | enough cells in well | 135
Ankrd34c (GeneID 330998) | 0.05 | enough cells in well | 171
9430015G10Rik (GeneID 230996) | -0.98 | enough cells in well | 130
Sh2d4b (GeneID 328381) | 0.74 | enough cells in well | 256
Cacng1 (GeneID 12299) | 0.54 | enough cells in well | 190
Toporsl (GeneID 68274) | – | fewer than 50 cells per well; well left out of calls | 297
Ercc8 (GeneID 71991) | 0.27 | enough cells in well | 259
Gmeb2 (GeneID 229004) | -0.29 | enough cells in well | 201
H2-M10.3 (GeneID 110696) | -0.29 | enough cells in well | 213
Or7g35 (GeneID 258517) | – | fewer than 50 cells per well; well left out of calls | 56.5
Mknk1 (GeneID 17346) | 1.11 | enough cells in well | 266
Il36rn (GeneID 54450) | 0.63 | enough cells in well | 248
Lce1b (GeneID 68720) | -0.52 | enough cells in well | 74.8
Fbxw5 (GeneID 30839) | 0.8 | enough cells in well | 235
A730036I17Rik (GeneID 329513) | -1.24 | enough cells in well | 105
Rab34 (GeneID 19376) | 2.13 | enough cells in well | 209
Vstm2l (GeneID 277432) | 2.16 | enough cells in well | 476
Ovol1 (GeneID 18426) | – | fewer than 50 cells per well; well left out of calls | 42.1
S100a16 (GeneID 67860) | -1.61 (active) | enough cells in well | 68.5
Sfswap (GeneID 231769) | 1.02 | enough cells in well | 334
Zfp770 (GeneID 228491) | 0.59 | enough cells in well | 227
Ccnd2 (GeneID 12444) | 1.25 | enough cells in well | 366

Entries listed so far whose gene name begins with F or f:
gene | Tnf reporter robust z-score | fewer than 50 cells in well | Tnf reporter intensity, replicate 1
Fxyd2 (GeneID 11936) | -0.22 | enough cells in well | 266
Fbxo43 (GeneID 78803) | 2.98 | enough cells in well | 388
Fbxw5 (GeneID 30839) | 0.8 | enough cells in well | 235
